Data from PubChem BioAssay AID2685 (National Center for Advancing Translational Sciences (NCATS), 2010).
Hit rate of the full screen: of about 320,000 compounds, about 2,100 (0.66%) were called active. Inconclusive results, whose numbers are uncertain, are shown with a selection of clear calls. The call rests on the fitted dose curve; in most records, active means well fitted inhibition curve with a large enough effect in the signal ratio, with a control signal flat (not every such curve was filed as active); inconclusive means small, poorly fitted or top-dose-only effect, or effect the other way, or a change in a side signal; inactive means flat fitted curve, though single readings scatter; the % refers to the signal ratio. A potency beside an inconclusive call is a rough fit, not a confirmed value.

Test: qHTS Assay for Lipid Storage Modulators in Drosophila S3 Cells
Settings: BODIPY lipid droplet fluorescence, 18-24 h, cells fed with added oleic acid; lipid storage change, negative = inhibition: at 46.1 µM (top of the series) unless noted
Procedure, shortened: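 Drosophila S3 cells loaded with oleic acid (400 uM, as added) and compounds at several concentrations; lipid droplets imaged by 488-nm laser-scanning cytometry, 500–530 nm intensity and object ratio to cell channel. Percent activity normalized to 20 uM Triacsin C.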
On the % scale 0 is the no-effect control and ±100 the full control effect; potency means the concentration at half of the fitted maximal effect.

| Structure (SMILES) | lipid storage change, negative = inhibition | Potency |
| --- | --- | --- |
| Cn1nc(-c2ccc(NCCO)c([N+](=O)[O-])c2)c2ccccc2c1=O | inconclusive: -49.6% [cytotoxic] [at 0.369 µM] | – |
| O=C(COC(=O)Cc1ccc(Cl)cc1)NC1CCCC1 | – | inconclusive: 4.61 µM [activator, single point] |
| COc1cc(NC(=O)COC(=O)CNC(=O)c2cc(C)cc(C)c2)c(C)cc1[N+](=O)[O-] | inconclusive: 2.51% | – |
| CCOC(=O)c1c(NC(=O)Cc2cccs2)sc2c1CCCC2 | – | inconclusive: 0.366 µM [activator, full curve, poor fit] |
| Cc1cccc(N2CCN(c3nnc(C(F)(F)F)s3)CC2)c1 | inconclusive: 13% | – |
| Cc1cc(C)nc(N/N=C/c2cc(C)n(CC(F)(F)F)c2C)n1 | inconclusive: 29.6% | – |
| CCN(CC(=O)NCc1ccc(Cl)cc1)C(=O)CN1C(=O)NC(CC)(c2ccccc2)C1=O (stereo unspecified) | inconclusive: 4.18% | – |
| Cc1ccc(NC(=O)CSc2nnc(Cc3csc(C)n3)o2)cc1 | – | inconclusive: 0.58 µM [falling, single point] |
| CCOC(=O)c1cc(-c2ccccc2)sc1NC(=O)C(C)C | inconclusive: -13.9% | – |
| Cc1ccc(S(=O)(=O)/N=S(/C)c2ccccc2)cc1 (stereo unspecified) | inconclusive: -32.1% | – |
| COc1cccc(-c2nc(CS(=O)(=O)CC(=O)Nc3ccccc3C)c(C)o2)c1 | inconclusive: 12.7% | – |
| COc1ccc(CNC(=O)CN2C(=O)C(C)N(c3ccc(C)cc3)C2=O)cc1 (stereo unspecified) | inconclusive: -38.2% | – |
| COC(=O)c1cc(S(=O)(=O)NC2CCN(Cc3ccccc3)CC2)cn1C | – | inconclusive: 5.8 µM [falling, full curve, poor fit] |
| O=c1oc(-c2cccs2)nc2scc(-c3cccs3)c12 | – | active: 14.6 µM |
| CCS(=O)(=O)c1nnnn1-c1ccccc1S(C)(=O)=O | inconclusive: 3.72% | – |
| Cc1ccc(C(=O)NC2CCSC2=O)cc1 (stereo unspecified) | – | inconclusive: 3.26 µM [falling, single point] |
| O=C(OCc1ccccc1)N1CCOCCOCCN(C(=O)OCc2ccccc2)CCOCCOCC1 | – | inconclusive: 16.4 µM [falling, single point] |
| O=C(Cc1ccccc1)NCCC1=CCCCC1 | inconclusive: -4.2% | – |
| Cc1ccc(S(=O)(=O)NNC(=O)CCC(=O)Nc2ccccc2Cl)cc1 | – | inconclusive: 29.1 µM [activator, single point] |
| COc1ccc(CN(C(=O)c2ccco2)C2CCS(=O)(=O)C2)cc1 (stereo unspecified) | inconclusive: -100% | – |
| O=C(COc1ccc(Cl)cc1Cl)Nc1nc2n(n1)C(c1ccccc1)CC(=O)N2 (stereo unspecified) | – | inconclusive: 1.16 µM [falling, full curve] |

Copied from the list:
lipid storage change, negative = inhibition with Cn1nc(-c2ccc(NCCO)c([N+](=O)[O-])c2)c2ccccc2c1=O is entered as inconclusive: -49.6% [cytotoxic] [at 0.369 µM]
lipid storage change, negative = inhibition with CCN(CC(=O)NCc1ccc(Cl)cc1)C(=O)CN1C(=O)NC(CC)(c2ccccc2)C1=O (stereo unspecified) is entered as inconclusive: 4.18%
